Measured data: PubChem BioAssay AID1508597 (Cure First, 2020)

Test: 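Knock-downs altering ovarian cancer cell survival with or without PARP inhibitor rucaparib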 (primary screen)
System: human ovarian carcinoma lines grown from tumours: OCI-P5x (papillary serous) and OCI-C5x (clear cell)
Reagents: siRNA pool against human genes, 1.25 pmol siRNA per well
Time to read-out: 72 h or 96 h, depending on the cell culture
Conditions: rucaparib 20 µM (about IC30) or vehicle, present until read-out
Rucaparib or vehicle: Vehicle
Cell line: OCI-P5x (serous)
Measurement: 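Luminescent ATP-based viability assay read 72 or 96 h after transfection, depending on culture, given as normalised percent viability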
Reading the numbers: viability, normalised: higher = more viable cells remaining
Active means: 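Active when normalised viability falls below 80 percent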
Calls: active = viability under 80%; inactive = viability 80% or more
Shown is a random part of the about 2,100 reagents, in one setting of the screen. 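Calls flag viability under 80% in either arm, not effects specific to rucaparib; the reference for percent is not stated.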 Not stated in the record: the 100% reference.

MTHFR (methylenetetrahydrofolate reductase), technical replicate 1 | viability, normalised (%) = 57.4; call = active
MTHFR (methylenetetrahydrofolate reductase), technical replicate 2 | viability, normalised (%) = 79.7; call = active
MTHFR (methylenetetrahydrofolate reductase), technical replicate 3 | viability, normalised (%) = 68.8; call = active
CBX4 (chromobox 4), technical replicate 1 | viability, normalised (%) = 85.1; call = inactive
CBX4 (chromobox 4), technical replicate 2 | viability, normalised (%) = 90; call = inactive
CBX4 (chromobox 4), technical replicate 3 | viability, normalised (%) = 88; call = inactive
EFNA5 (ephrin A5), technical replicate 1 | viability, normalised (%) = 61.4; call = active
EFNA5 (ephrin A5), technical replicate 2 | viability, normalised (%) = 79.2; call = active
EFNA5 (ephrin A5), technical replicate 3 | viability, normalised (%) = 76.8; call = active
BNIP2 (BCL2 interacting protein 2), technical replicate 1 | viability, normalised (%) = 55.3; call = active
BNIP2 (BCL2 interacting protein 2), technical replicate 2 | viability, normalised (%) = 72.6; call = active
BNIP2 (BCL2 interacting protein 2), technical replicate 3 | viability, normalised (%) = 51.4; call = active

Called active (from the list above):
MTHFR (methylenetetrahydrofolate reductase), technical replicate 1 | viability, normalised (%) = 57.4; call = active
MTHFR (methylenetetrahydrofolate reductase), technical replicate 2 | viability, normalised (%) = 79.7; call = active
MTHFR (methylenetetrahydrofolate reductase), technical replicate 3 | viability, normalised (%) = 68.8; call = active
EFNA5 (ephrin A5), technical replicate 1 | viability, normalised (%) = 61.4; call = active
EFNA5 (ephrin A5), technical replicate 2 | viability, normalised (%) = 79.2; call = active
EFNA5 (ephrin A5), technical replicate 3 | viability, normalised (%) = 76.8; call = active
BNIP2 (BCL2 interacting protein 2), technical replicate 1 | viability, normalised (%) = 55.3; call = active
BNIP2 (BCL2 interacting protein 2), technical replicate 2 | viability, normalised (%) = 72.6; call = active
BNIP2 (BCL2 interacting protein 2), technical replicate 3 | viability, normalised (%) = 51.4; call = active

The listing continues.
PCDHB4 (protocadherin beta 4), technical replicate 1 | viability, normalised (%) = 58; call = active
PCDHB4 (protocadherin beta 4), technical replicate 2 | viability, normalised (%) = 60.3; call = active
PCDHB4 (protocadherin beta 4), technical replicate 3 | viability, normalised (%) = 76.5; call = active
ERCC6L (ERCC excision repair 6 like DNA helicase), technical replicate 1 | viability, normalised (%) = 83.4; call = inactive
ERCC6L (ERCC excision repair 6 like DNA helicase), technical replicate 2 | viability, normalised (%) = 86.9; call = inactive
ERCC6L (ERCC excision repair 6 like DNA helicase), technical replicate 3 | viability, normalised (%) = 78; call = active
CNR2 (cannabinoid receptor 2), technical replicate 1 | viability, normalised (%) = 62.5; call = active
CNR2 (cannabinoid receptor 2), technical replicate 2 | viability, normalised (%) = 74.8; call = active
CNR2 (cannabinoid receptor 2), technical replicate 3 | viability, normalised (%) = 71.9; call = active
